The nature of the assay: qHTS Assay for Lipid Storage Modulators in Drosophila S3 Cells.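 For cell number change: cells counted by Cell Tracker Red CMTPX staining in the red channel.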 As to conditions: BODIPY lipid droplet fluorescence, 18-24 h; for cell number change: measured here: cell count max response, cells fed with added oleic acid. In a few lines: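 Drosophila S3 cells got compounds at several concentrations plus oleic acid (400 uM solution). Laser-scanning cytometry with 488 nm excitation read lipid droplets at 500-530 nm and cells at 575-640 nm. Percent activity was relative to 20 uM Triacsin C.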
Background: In qHTS, concentration-response curves come from the screen itself.

Where [1] appears, read: measured here: cell number channel AC50, cells fed with added oleic acid.
The mark [2] stands for this setting: measured here: lipid fluorescence (Fed channel) AC50, cells fed with added oleic acid.

What is called AC50 is the concentration giving half of the maximal activity seen. A higher AC50 goes with activity only at high concentration.

This is one part of the list. These are further read-outs of the screen, such as a control signal, another cell line or another target. No call is given for them. Compounds called inactive in the main read-out are mostly missing here. The note in brackets gives the kind of curve behind each potency; many fits are weak.

In the case of `CC1=C(C(=O)OCC(C)C)C(c2ccsc2)NC(=O)N1` (centres undefined), the cell number change is -34%. Besides, under setting [1], the AC50 was 0.651 µM [falling, full curve, poor fit]. For the same compound, the AC50 under setting [2] was 0.651 µM [falling, full curve].

On to `Cc1ccc(N2CCN(c3cc(C)nc4c5c(C)cc(C)nc5nn34)CC2)cc1`, for which the cell number change came to 4.95%.

Regarding `O=[N+]([O-])c1ccccc1Nc1c2ccccc2nc2ccccc12`, the cell number change is -7.3%. Besides, the AC50 under setting [1] is 0.092 µM [rising, full curve, poor fit].

Consider `Cc1cc(NC(=O)CSc2nnc(CNC(=O)c3cccc(C(F)(F)F)c3)o2)no1`, for which the cell number change amounted to 26%.

Consider `COc1ccc(-c2cn3cccnc3n2)cc1NC(=O)Nc1cc(C)ccc1C`, for which the cell number change is -81.1%. Moreover, the AC50 under setting [1] is 16.4 µM [falling, single point].

As to `CSc1nsc(SCc2ccc(F)cc2)n1`, the cell number change is -14.5%.

Take `Cc1ccc2c(c1)N(C)/C(=C/c1cccc[n+]1C)S2`: the cell number change is -54.3%. The AC50 under setting [1] is 7.31 µM [falling, partial curve]. In addition, the AC50 under setting [2] was 6.51 µM [falling, partial curve].

As to `COCc1cc(CN2CCN(C)CC2)c(O)c2ncccc12`, the cell number change was -102%. Besides, the AC50 under setting [1] is 29.1 µM [falling, single point]. Also, the AC50 under setting [2] is 1.3 µM [falling, partial curve].

For `CCS(=O)(=O)c1ccc2oc(SCC(=O)c3ccco3)nc2c1`, the cell number change is -4.32%.

On to `Cc1ccc(C(=O)OCC(=O)Nc2ccc(Cl)cn2)s1`, for which the cell number change was 8.11%.

Turning to `O=C(NCCc1ccco1)c1cc(COc2cccc(C(F)(F)F)c2)on1`, the cell number change is 12.9%.

On to `CCOc1ccc(N2CC(=O)SC2=S)cc1`, for which the cell number change is -20.4%. In addition, under setting [1], the half-maximal activity concentration (AC50) is 3.66 µM [falling, single point]. For the same compound, under setting [2], the AC50 was 2.91 µM [falling, partial curve, poor fit].

For `C=CCn1c(CSc2nc3ccccc3s2)nnc1SCC(=O)NCc1cccnc1`, the cell number change was -18.6%.

`O=C(NCCCNC1CCCCC1)c1ccc(/C=N/O)nc1`: the cell number change was -168%. The AC50 under setting [1] is 29.1 µM [falling, single point]. Under setting [2], the AC50 was 20.6 µM [falling, partial curve].

`C/C(=N\NC(=O)COc1ccccc1-c1ccccc1)c1cccnc1`: the cell number change is 37.9%. In addition, under setting [1], the AC50 is 0.461 µM [rising, full curve]. Further, the AC50 under setting [2] was 0.651 µM [rising, full curve, poor fit].

Take `O=C(CCCO)NNc1c2ccccc2nc2ccccc12`: the cell number change was -6.95%. Also, the AC50 under setting [2] is 29.1 µM [falling, single point].

As to `CC(CC(=O)Nc1cccnc1)c1ccccc1` (centres undefined), the cell number change was determined as 32.1%.

On to `CC(Oc1cc2oc(=O)c3c(c2cc1Cl)CCC3)C(=O)NCc1ccccn1` (centres undefined), for which the cell number change amounted to 10.9%. Further, the AC50 under setting [2] was 1.84 µM [falling, full curve].

Take `CCC(CC)C(=O)Nc1c(C)n(C)n(-c2ccccc2)c1=O`: the cell number change was -42.8%. Also, the AC50 under setting [1] is 0.651 µM [falling, full curve].

In the case of `Cc1nc2cc(-c3ccccc3)[nH]n2c(=O)c1C`, the cell number change worked out at 7.61%. Moreover, under setting [2], the AC50 is 10.3 µM [rising, partial curve].

`COc1cc(/C=C/C(=O)OCC(=O)Nc2sc3c(c2C#N)CCC(C)C3)ccc1OCC#N` (centres undefined): the cell number change amounted to 24.2%. Further, the AC50 under setting [2] is 29.1 µM [falling, single point].

As to `CCSc1ccccc1C(=O)Nc1cccc(OC)c1`, the cell number change stood at 51.1%. Further, the AC50 under setting [1] is 5.8 µM [rising, partial curve].

Take `Cc1ccc(S(=O)(=O)n2c(N)nc3ccccc32)cc1`: the cell number change was found to be 1.76%. Also, under setting [2], the AC50 was 29.1 µM [rising, single point].

With `O=C(NCc1ccccc1)C(c1cccnc1)N(C(=O)c1csnn1)c1ccc(F)cc1` (centres undefined), the cell number change was -19%.

Take `CC(=O)N(/N=C1\Sc2ccccc2C1=O)c1ccc(C)cc1C`: the cell number change is -11%.

For `O=C(Cc1ccc(Cl)cc1)Nc1ccc(Br)cn1`, the cell number change is -11.1%. In addition, the AC50 under setting [2] was 29.1 µM [rising, single point].

`Cc1c(Nc2cc(N3CCOCC3)c3nonc3c2[N+](=O)[O-])c(=O)n(-c2ccccc2)n1C`: the cell number change was -45.4%. For the same compound, the AC50 under setting [1] is 0.651 µM [falling, full curve]. In addition, under setting [2], the AC50 is 0.231 µM [falling, full curve].

For the compound `Cc1ccc(S(=O)(=O)NCC(=O)OC(C)C(=O)NC2CCCCC2C)cc1C` (centres undefined), the cell number change was -10.3%. Besides, the AC50 under setting [2] is 0.366 µM [rising, partial curve, poor fit].

Regarding `C=CCOc1nc(-c2ccccc2Cl)nc2ccccc12`, the cell number change was 15.9%. Also, the AC50 under setting [1] is 2.06 µM [rising, single point].

In the case of `COC(=O)[C@@]12CCCN1[C@H](c1ccc(-c3ccc(Cl)c(Cl)c3)cc1)[C@H]1C(=O)N(C)C(=O)[C@H]12`, the cell number change was -56.9%. Further, the AC50 under setting [1] was 16.4 µM [falling, partial curve].

As to `O=C(/C=C(\c1ccc(Cl)cc1)n1cncn1)c1ccc(Cl)cc1`, the cell number change is -11.5%. Besides, the AC50 under setting [2] was 0.366 µM [rising, full curve, poor fit].

`COc1ccc2c(c1OC)C(=O)N1c3ccccc3SC21` (centres undefined): the cell number change came to 26.4%. In addition, under setting [2], the AC50 is 1.64 µM [rising, partial curve].

In the case of `O=C(NC1CCc2ccccc21)C1CCN(S(=O)(=O)c2ccc(Cl)cc2)CC1` (centres undefined), the cell number change is 6.31%. Moreover, the AC50 under setting [2] is 32.6 µM [rising, partial curve, poor fit].

Regarding `Cc1cc(C)c(C)c(S(=O)(=O)NC(C(=O)O)C(C)C)c1C` (centres undefined), the cell number change was -103%. Moreover, the AC50 under setting [1] was 18.4 µM [falling, partial curve].

Turning to `COc1cccc(C(=O)NC(=O)Nc2cc(C)on2)c1`, the cell number change came to 38.6%. The AC50 under setting [1] was 2.91 µM [rising, partial curve, poor fit]. Besides, the AC50 under setting [2] was 3.26 µM [rising, partial curve].

On to `COc1cc(OC)c(OC)cc1/C=C/C(=O)c1ccc(NS(=O)(=O)c2ccc(C)cc2)cc1`, for which the cell number change amounted to 40.1%. In addition, the AC50 under setting [1] is 3.66 µM [rising, partial curve]. Also, under setting [2], the AC50 was 5.17 µM [rising, partial curve].

Take `CCCCOc1ccc(/C(O)=C2/C(=O)C(=O)N(CCN(C)C)C2c2ccc(O)c(OC)c2)cc1` (centres undefined): the cell number change was -0.0978%. In addition, the AC50 under setting [2] was 6.51 µM [rising, single point].

Turning to `CC(C)(C)C(=O)Nc1ccc(-c2cn3ccsc3n2)cc1`, the cell number change was found to be 7.59%. The AC50 under setting [2] was 18.4 µM [falling, single point].

For `O=C(CC1SC(=NCC2CCCO2)NC1=O)Nc1cc([N+](=O)[O-])ccc1Cl` (centres undefined), the cell number change came to 0.406%. Further, under setting [2], the AC50 is 0.0651 µM [falling, full curve, poor fit].

In the case of `Cc1ccc(NC(=O)COC(=O)c2ccco2)cc1C`, the cell number change was 2.54%. Also, the AC50 under setting [2] is 0.0092 µM [rising, full curve, poor fit].

With `CN1C(=O)C2(Oc3ccccc3C3CC(c4ccccc4)=NN32)c2ccccc21` (centres undefined), the cell number change amounted to 0.774%. Moreover, the AC50 under setting [2] is 7.31 µM [rising, single point].

As to `COc1ccccc1[C@]1(C)ON(c2ccccc2C(F)(F)F)C1=O`, the cell number change was -39.7%. The AC50 under setting [1] was 8.2 µM [falling, single point]. In addition, under setting [2], the AC50 is 20.6 µM [falling, single point].

With `CC(=O)c1cccc(NC(=O)Nc2ccc(C(=O)N3CCOCC3)cc2)c1`, the cell number change was 22.4%. For the same compound, the AC50 under setting [2] is 29.1 µM [rising, single point].

Turning to `COc1ccc2cc(CCl)c(Cl)nc2c1`, the cell number change is -33.9%. Besides, under setting [1], the AC50 is 3.66 µM [falling, single point]. The AC50 under setting [2] was 6.51 µM [falling, single point].

In the case of `Cc1ccc(NC(=O)c2ccc(NCCCN3CCC(C)CC3)c([N+](=O)[O-])c2)cc1F`, the cell number change was -32.4%. For the same compound, under setting [1], the AC50 is 29.1 µM [falling, single point]. Further, under setting [2], the AC50 is 23.1 µM [falling, single point].

`O=[N+]([O-])c1ccccc1/C=C/C=N/N1CCCCC1`: the cell number change came to 12.4%. Also, the AC50 under setting [1] is 0.366 µM [rising, full curve, poor fit].

On to `COc1ccccc1C(=O)Nc1ccc2c(c1)OCO2`, for which the AC50 is, setting by setting: under setting [1], 0.0291 µM [rising, full curve, poor fit]; under setting [2], 2.91 µM [rising, partial curve].

`CCc1sc(C(=O)NCc2cc(C)n(C)n2)cc1Br`: the cell number change was -9.72%. Also, the AC50 under setting [2] was 0.92 µM [rising, single point].

Consider `CC(C)NC(=O)CN1CCN(Cc2nc(C(c3ccccc3)c3ccccc3)no2)CC1`, for which the cell number change came out at 1.75%.

On to `Cc1ccc(S(=O)(=O)NCCc2ccccc2)cc1`, for which the AC50 under setting [2] was 6.51 µM [falling, single point].

With `CCn1c(C)nc2cc(OC)ccc21`, the AC50 under setting [2] was 0.259 µM [falling, full curve, poor fit].

In the case of `CCN(C(=O)CN1CCN(S(=O)(=O)c2ccccc2C(F)(F)F)CC1)c1c(N)n(Cc2ccccc2)c(=O)[nH]c1=O`, the cell number change is -25.2%. Moreover, under setting [1], the AC50 is 0.00651 µM [falling, full curve, poor fit].

Take `COc1ccc(NC(=O)c2cc(C)cc(C)c2)cc1S(=O)(=O)N1CCCCC1`: the cell number change worked out at 1.25%.

Take `CCOc1ccc(NC(=O)CCC(=O)N/N=C/c2ccc3c(c2)OCO3)cc1`: the cell number change came to 25.1%. The AC50 under setting [2] is 4.61 µM [rising, full curve, poor fit].

Regarding `COC(=O)[C@@H](CC(C)C)NS(=O)(=O)N(Cc1ccccc1)[C@@H](CC(C)C)C(=O)OC`, the cell number change is -40.6%. Further, the AC50 under setting [1] was 16.4 µM [falling, single point].

In the case of `CCN(CC)S(=O)(=O)c1cccc(NC(=O)COc2ccc(Cl)cc2Br)c1`, the cell number change is 0.754%. Moreover, the AC50 under setting [2] is 0.651 µM [rising, partial curve].

Turning to `CC(C)(C)C(=O)NC1CC2CCCC(C1)N2C(=O)Nc1ccccc1F` (centres undefined), the cell number change was 10.6%.

For `CCOc1ccc(CC(=O)NC2CC(C)(C)N(C)C(C)(C)C2)cc1OCC`, the cell number change is -32.4%. For the same compound, the AC50 under setting [1] was 1.03 µM [falling, full curve, poor fit]. Further, under setting [2], the AC50 is 1.3 µM [falling, full curve, poor fit].

Consider `Cc1nn(C)cc1S(=O)(=O)N1CCN(Cc2ccccc2Cl)CC1`, for which the cell number change is -32.5%.

Turning to `Cn1nc(C(C)(C)C)cc1C(=O)Nc1nc2c(s1)C(=O)CC(C)(C)C2`, the cell number change was -25.3%. Moreover, the AC50 under setting [2] is 4.11 µM [falling, single point].

Turning to `CCOc1cc(/C=N/NC(=O)CSc2nncn2C)ccc1OCC(N)=O`, the cell number change was -4.21%. Also, the AC50 under setting [2] is 0.731 µM [falling, full curve, poor fit].

For the origin of these results see PubChem BioAssay AID2685 (National Center for Advancing Translational Sciences (NCATS), 2010).
